PubChem BioAssay AID1224830, NIAID | 2016

Purpose: 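Genes whose knock-down alters the TNF-alpha reporter response to LPS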 (primary screen)
Cell system: human THP-1 monocytic leukaemia cells, TNF dual-luciferase reporter clone, PMA-differentiated to macrophage-like cells
Reagent: siRNA pool against human genes, 50 nM
Time to read-out: LPS for 4 h, given about 3 days after siRNA transfection
Challenge: bacterial LPS (TLR4 ligand), 10 ng/ml
Measured: 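TNF firefly reporter luminescence divided by renilla, normalised to the plate median, then turned into a robust z-score for each replicate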
Direction: TNF reporter robust z-score: higher = stronger TNF reporter response to LPS
Rule for the call: 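Each well counts as active if its z-score is over 2.8 or under -1.5; controls are left without a call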
In all, the deposit lists about 18,000 reagents; this is a part drawn at random. Of all reagents, about 2,900 (16%) were called active. 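Calls are made per well; low scores hint the gene aids the LPS response, high scores that it dampens it.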 Unmarked entries are inactive. Repeated entries: four replicate wells of each siRNA pool. No sequences are given here.

MDFIC → TNF reporter robust z-score: 0.27
MDFIC → TNF reporter robust z-score: 0.61
MDFIC → TNF reporter robust z-score: 0.68
MDFIC → TNF reporter robust z-score: 1.26
DRC2 → TNF reporter robust z-score: 0.9
DRC2 → TNF reporter robust z-score: 1.96
DRC2 → TNF reporter robust z-score: 0.3
DRC2 → TNF reporter robust z-score: 0.68
SLC38A1 → TNF reporter robust z-score: -1.59 (active)
SLC38A1 → TNF reporter robust z-score: -0.72
SLC38A1 → TNF reporter robust z-score: -1.15
SLC38A1 → TNF reporter robust z-score: -1.45
PIK3C2G → TNF reporter robust z-score: -1.61 (active)
PIK3C2G → TNF reporter robust z-score: -0.2
PIK3C2G → TNF reporter robust z-score: -0.66
PIK3C2G → TNF reporter robust z-score: 0.3
DNAJB9 → TNF reporter robust z-score: 1.05
DNAJB9 → TNF reporter robust z-score: 0.79
DNAJB9 → TNF reporter robust z-score: 0.48
DNAJB9 → TNF reporter robust z-score: 0.29
PGBDF → TNF reporter robust z-score: -0.68
PGBDF → TNF reporter robust z-score: -0.58
PGBDF → TNF reporter robust z-score: -0.7
PGBDF → TNF reporter robust z-score: 0.18
SCGB3A2 → TNF reporter robust z-score: -0.24
SCGB3A2 → TNF reporter robust z-score: -1.18
SCGB3A2 → TNF reporter robust z-score: -0.54
SCGB3A2 → TNF reporter robust z-score: -0.86
BICD1 → TNF reporter robust z-score: -0.47
BICD1 → TNF reporter robust z-score: -0.68
BICD1 → TNF reporter robust z-score: -0.38
BICD1 → TNF reporter robust z-score: -0.28

Ordered by “TNF reporter robust z-score” (highest first): 2 of the entries above
BICD1 → TNF reporter robust z-score: -0.47
BICD1 → TNF reporter robust z-score: -0.68
